Measured values reported in PMC8860612.
No constants are given. Whether binding was seen depends on the method and setting. For part of these data: Binding seen in cells or lysates may run through a third protein. Some binding calls cover weakened binding; strength is not graded here. For part of these data: Tags and fused reporters may be left off the sequences shown.

Sequences of proteins named here, by UniProt entry; tags and fusion partners are left off.
UniProt Q06609: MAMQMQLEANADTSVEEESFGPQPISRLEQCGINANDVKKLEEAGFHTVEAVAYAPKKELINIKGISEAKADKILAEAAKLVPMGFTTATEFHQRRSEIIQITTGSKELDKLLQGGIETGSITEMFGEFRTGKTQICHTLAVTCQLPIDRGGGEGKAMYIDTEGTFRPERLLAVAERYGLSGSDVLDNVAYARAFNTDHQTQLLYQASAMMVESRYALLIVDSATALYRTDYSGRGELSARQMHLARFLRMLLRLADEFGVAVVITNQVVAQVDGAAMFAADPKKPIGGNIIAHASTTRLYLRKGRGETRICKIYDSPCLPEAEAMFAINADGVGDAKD

Key:
[1] = molecular target: endogenous RAD51 (HeLa) (human (endogenous in HeLa)) (UniProt Q06609); experiment: proximity ligation; Duolink in situ PLA in fixed HeLa cells, mock or 5 Gy IR (2 h), rabbit anti-RAD51 and mouse anti-TOPORS primary antibodies
[2] = molecular target: endogenous RAD51 (HeLa) (human (endogenous in HeLa)) (UniProt Q06609); experiment: co-IP; endogenous proteins, HeLa whole cell lysates (RIPA buffer), cells with or without 5 Gy IR or 2 mM HU, control or TOPORS-depleted; immunoprecipitation with anti-RAD51 or anti-TOPORS antibody, immunoblot
[3] = molecular target: 3xHA-RAD51-WT (HEK293T) (human) (UniProt Q06609); experiment: co-IP; HEK293T cells transfected with HA-RAD51 and GFP-TOPORS (WT, T515A or T515E), treated with 5 Gy IR; immunoprecipitation and immunoblot
[4] = molecular target: 6xHis-RAD51 (bacterially purified) (human) (UniProt Q06609); experiment: pull-down; 6xHis-RAD51 immobilised on Ni-NTA agarose, incubated with 3 ug purified bacterial TOPORS at 4 C overnight, TEN100 buffer (20 mM Tris pH 7.4, 0.1 mM EDTA, 100 mM NaCl); western blot; both purified

Binder | binding [3] | further results
endogenous TOPORS (HeLa) (protein, UniProt Q9NS56 1-1045) MGSQPPLGSPLSREEGEAPPPAPASEGRRRSRRVRLRGSCRHRPSFLGCRELAASAPARPAPASSEIMASAAKEFKMDNFSPKAGTSKLQQTVPADASPDSKCPICLDRFDNVSYLDRCLHKFCFRCVQEWSKNKAECPLCKQPFDSIFHSVRAEDDFKEYVLRPSYNGSFVTPDRRFRYRTTLTRERNASVYSPSGPVNRRTTTPPDSGVLFEGLGISTRPRDVEIPQFMRQIAVRRPTTADERSLRKIQEQDIINFRRTLYRAGARVRNIEDGGRYRDISAEFFRRNPACLHRLVPWLKRELTVLFGAHGSLVNIVQHIIMSNVTRYDLESQAFVSDLRPFLLNRTEHFIHEFISFARSPFNMAAFDQHANYDCPAPSYEEGSHSDSSVITISPDEAETQELDINVATVSQAPWDDETPGPSYSSSEQVHVTMSSLLNTSDSSDEELVTGGATSQIQGVQTNDDLNNDSDDSSDNCVIVGFVKPLAERTPELVELSSDSEDLGSYEKMETVKTQEQEQSYSSGDSDVSRCSSPHSVLGKDEQINKGHCDSSTRIKSKKEEKRSTSLSSPRNLNSSVRGDRVYSPYNHRHRKRGRSRSSDSRSQSRSGHDQKNHRKHHGKKRMKSKRSRSRESSRPRGRRDKKRSRTRDSSWSRRSQTLSLSSESTSRSRSRSSDHGKRRSRSRNRDRYYLRNNYGSRYKWEYTYYSRNKDRDGYESSYRRRTLSRAHYSRQSSSPEFRVQSFSERTNARKKNNHSERKYYYYERHRSRSLSSNRSRTASTGTDRVRNEKPGGKRKYKTRHLEGTNEVAQPSREFASKAKDSHYQKSSSKLDGNYKNESDTFSDSRSSDRETKHKRRKRKTRSLSVEIVYEGKATDTTKHHKKKKKKHKKKHKKHHGDNASRSPVVITIDSDSDKDSEVKEDTECDNSGPQDPLQNEFLAPSLEPFETKDVVTIEAEFGVLDKECDIATLSNNLNNANKTVDNIPPLAASVEQTLDVREESTFVSDLENQPSNIVSLQTEPSRQLPSPRTSLMSVCLGRDCDMS | – | binding [1]: binds; binding [2]: binds
GFP-TOPORS-WT (HEK293T) (protein, UniProt Q9NS56 1-1045) MGSQPPLGSPLSREEGEAPPPAPASEGRRRSRRVRLRGSCRHRPSFLGCRELAASAPARPAPASSEIMASAAKEFKMDNFSPKAGTSKLQQTVPADASPDSKCPICLDRFDNVSYLDRCLHKFCFRCVQEWSKNKAECPLCKQPFDSIFHSVRAEDDFKEYVLRPSYNGSFVTPDRRFRYRTTLTRERNASVYSPSGPVNRRTTTPPDSGVLFEGLGISTRPRDVEIPQFMRQIAVRRPTTADERSLRKIQEQDIINFRRTLYRAGARVRNIEDGGRYRDISAEFFRRNPACLHRLVPWLKRELTVLFGAHGSLVNIVQHIIMSNVTRYDLESQAFVSDLRPFLLNRTEHFIHEFISFARSPFNMAAFDQHANYDCPAPSYEEGSHSDSSVITISPDEAETQELDINVATVSQAPWDDETPGPSYSSSEQVHVTMSSLLNTSDSSDEELVTGGATSQIQGVQTNDDLNNDSDDSSDNCVIVGFVKPLAERTPELVELSSDSEDLGSYEKMETVKTQEQEQSYSSGDSDVSRCSSPHSVLGKDEQINKGHCDSSTRIKSKKEEKRSTSLSSPRNLNSSVRGDRVYSPYNHRHRKRGRSRSSDSRSQSRSGHDQKNHRKHHGKKRMKSKRSRSRESSRPRGRRDKKRSRTRDSSWSRRSQTLSLSSESTSRSRSRSSDHGKRRSRSRNRDRYYLRNNYGSRYKWEYTYYSRNKDRDGYESSYRRRTLSRAHYSRQSSSPEFRVQSFSERTNARKKNNHSERKYYYYERHRSRSLSSNRSRTASTGTDRVRNEKPGGKRKYKTRHLEGTNEVAQPSREFASKAKDSHYQKSSSKLDGNYKNESDTFSDSRSSDRETKHKRRKRKTRSLSVEIVYEGKATDTTKHHKKKKKKHKKKHKKHHGDNASRSPVVITIDSDSDKDSEVKEDTECDNSGPQDPLQNEFLAPSLEPFETKDVVTIEAEFGVLDKECDIATLSNNLNNANKTVDNIPPLAASVEQTLDVREESTFVSDLENQPSNIVSLQTEPSRQLPSPRTSLMSVCLGRDCDMS | binds | –
GST-TOPORS (bacterially purified) (protein, UniProt Q9NS56 1-1045) MGSQPPLGSPLSREEGEAPPPAPASEGRRRSRRVRLRGSCRHRPSFLGCRELAASAPARPAPASSEIMASAAKEFKMDNFSPKAGTSKLQQTVPADASPDSKCPICLDRFDNVSYLDRCLHKFCFRCVQEWSKNKAECPLCKQPFDSIFHSVRAEDDFKEYVLRPSYNGSFVTPDRRFRYRTTLTRERNASVYSPSGPVNRRTTTPPDSGVLFEGLGISTRPRDVEIPQFMRQIAVRRPTTADERSLRKIQEQDIINFRRTLYRAGARVRNIEDGGRYRDISAEFFRRNPACLHRLVPWLKRELTVLFGAHGSLVNIVQHIIMSNVTRYDLESQAFVSDLRPFLLNRTEHFIHEFISFARSPFNMAAFDQHANYDCPAPSYEEGSHSDSSVITISPDEAETQELDINVATVSQAPWDDETPGPSYSSSEQVHVTMSSLLNTSDSSDEELVTGGATSQIQGVQTNDDLNNDSDDSSDNCVIVGFVKPLAERTPELVELSSDSEDLGSYEKMETVKTQEQEQSYSSGDSDVSRCSSPHSVLGKDEQINKGHCDSSTRIKSKKEEKRSTSLSSPRNLNSSVRGDRVYSPYNHRHRKRGRSRSSDSRSQSRSGHDQKNHRKHHGKKRMKSKRSRSRESSRPRGRRDKKRSRTRDSSWSRRSQTLSLSSESTSRSRSRSSDHGKRRSRSRNRDRYYLRNNYGSRYKWEYTYYSRNKDRDGYESSYRRRTLSRAHYSRQSSSPEFRVQSFSERTNARKKNNHSERKYYYYERHRSRSLSSNRSRTASTGTDRVRNEKPGGKRKYKTRHLEGTNEVAQPSREFASKAKDSHYQKSSSKLDGNYKNESDTFSDSRSSDRETKHKRRKRKTRSLSVEIVYEGKATDTTKHHKKKKKKHKKKHKKHHGDNASRSPVVITIDSDSDKDSEVKEDTECDNSGPQDPLQNEFLAPSLEPFETKDVVTIEAEFGVLDKECDIATLSNNLNNANKTVDNIPPLAASVEQTLDVREESTFVSDLENQPSNIVSLQTEPSRQLPSPRTSLMSVCLGRDCDMS | – | binding [4]: binds
GFP-TOPORS-T515A (HEK293T) (protein, UniProt Q9NS56 1-1045) MGSQPPLGSPLSREEGEAPPPAPASEGRRRSRRVRLRGSCRHRPSFLGCRELAASAPARPAPASSEIMASAAKEFKMDNFSPKAGTSKLQQTVPADASPDSKCPICLDRFDNVSYLDRCLHKFCFRCVQEWSKNKAECPLCKQPFDSIFHSVRAEDDFKEYVLRPSYNGSFVTPDRRFRYRTTLTRERNASVYSPSGPVNRRTTTPPDSGVLFEGLGISTRPRDVEIPQFMRQIAVRRPTTADERSLRKIQEQDIINFRRTLYRAGARVRNIEDGGRYRDISAEFFRRNPACLHRLVPWLKRELTVLFGAHGSLVNIVQHIIMSNVTRYDLESQAFVSDLRPFLLNRTEHFIHEFISFARSPFNMAAFDQHANYDCPAPSYEEGSHSDSSVITISPDEAETQELDINVATVSQAPWDDETPGPSYSSSEQVHVTMSSLLNTSDSSDEELVTGGATSQIQGVQTNDDLNNDSDDSSDNCVIVGFVKPLAERTPELVELSSDSEDLGSYEKMETVKAQEQEQSYSSGDSDVSRCSSPHSVLGKDEQINKGHCDSSTRIKSKKEEKRSTSLSSPRNLNSSVRGDRVYSPYNHRHRKRGRSRSSDSRSQSRSGHDQKNHRKHHGKKRMKSKRSRSRESSRPRGRRDKKRSRTRDSSWSRRSQTLSLSSESTSRSRSRSSDHGKRRSRSRNRDRYYLRNNYGSRYKWEYTYYSRNKDRDGYESSYRRRTLSRAHYSRQSSSPEFRVQSFSERTNARKKNNHSERKYYYYERHRSRSLSSNRSRTASTGTDRVRNEKPGGKRKYKTRHLEGTNEVAQPSREFASKAKDSHYQKSSSKLDGNYKNESDTFSDSRSSDRETKHKRRKRKTRSLSVEIVYEGKATDTTKHHKKKKKKHKKKHKKHHGDNASRSPVVITIDSDSDKDSEVKEDTECDNSGPQDPLQNEFLAPSLEPFETKDVVTIEAEFGVLDKECDIATLSNNLNNANKTVDNIPPLAASVEQTLDVREESTFVSDLENQPSNIVSLQTEPSRQLPSPRTSLMSVCLGRDCDMS | binds | –
GFP-TOPORS-T515E (HEK293T) (protein, UniProt Q9NS56 1-1045) MGSQPPLGSPLSREEGEAPPPAPASEGRRRSRRVRLRGSCRHRPSFLGCRELAASAPARPAPASSEIMASAAKEFKMDNFSPKAGTSKLQQTVPADASPDSKCPICLDRFDNVSYLDRCLHKFCFRCVQEWSKNKAECPLCKQPFDSIFHSVRAEDDFKEYVLRPSYNGSFVTPDRRFRYRTTLTRERNASVYSPSGPVNRRTTTPPDSGVLFEGLGISTRPRDVEIPQFMRQIAVRRPTTADERSLRKIQEQDIINFRRTLYRAGARVRNIEDGGRYRDISAEFFRRNPACLHRLVPWLKRELTVLFGAHGSLVNIVQHIIMSNVTRYDLESQAFVSDLRPFLLNRTEHFIHEFISFARSPFNMAAFDQHANYDCPAPSYEEGSHSDSSVITISPDEAETQELDINVATVSQAPWDDETPGPSYSSSEQVHVTMSSLLNTSDSSDEELVTGGATSQIQGVQTNDDLNNDSDDSSDNCVIVGFVKPLAERTPELVELSSDSEDLGSYEKMETVKEQEQEQSYSSGDSDVSRCSSPHSVLGKDEQINKGHCDSSTRIKSKKEEKRSTSLSSPRNLNSSVRGDRVYSPYNHRHRKRGRSRSSDSRSQSRSGHDQKNHRKHHGKKRMKSKRSRSRESSRPRGRRDKKRSRTRDSSWSRRSQTLSLSSESTSRSRSRSSDHGKRRSRSRNRDRYYLRNNYGSRYKWEYTYYSRNKDRDGYESSYRRRTLSRAHYSRQSSSPEFRVQSFSERTNARKKNNHSERKYYYYERHRSRSLSSNRSRTASTGTDRVRNEKPGGKRKYKTRHLEGTNEVAQPSREFASKAKDSHYQKSSSKLDGNYKNESDTFSDSRSSDRETKHKRRKRKTRSLSVEIVYEGKATDTTKHHKKKKKKHKKKHKKHHGDNASRSPVVITIDSDSDKDSEVKEDTECDNSGPQDPLQNEFLAPSLEPFETKDVVTIEAEFGVLDKECDIATLSNNLNNANKTVDNIPPLAASVEQTLDVREESTFVSDLENQPSNIVSLQTEPSRQLPSPRTSLMSVCLGRDCDMS | binds | –
